Test results from PubChem BioAssay AID540275 (National Center for Advancing Translational Sciences (NCATS), 2011).
Screen size: about 320,000 compounds; about 620 (0.19%) were called active. Inconclusive means that the source gave no clear call. Such entries were picked first, then a sample of the others. Cut-off read from the data, not from the text of the source: active = activation above about 80%; inconclusive = between about 30% and that limit; inactive = weaker than that.

Protein sequences, listed by entry. Tags and fused reporters are not part of them.
UniProt Q8NER1, whole entry, looked up: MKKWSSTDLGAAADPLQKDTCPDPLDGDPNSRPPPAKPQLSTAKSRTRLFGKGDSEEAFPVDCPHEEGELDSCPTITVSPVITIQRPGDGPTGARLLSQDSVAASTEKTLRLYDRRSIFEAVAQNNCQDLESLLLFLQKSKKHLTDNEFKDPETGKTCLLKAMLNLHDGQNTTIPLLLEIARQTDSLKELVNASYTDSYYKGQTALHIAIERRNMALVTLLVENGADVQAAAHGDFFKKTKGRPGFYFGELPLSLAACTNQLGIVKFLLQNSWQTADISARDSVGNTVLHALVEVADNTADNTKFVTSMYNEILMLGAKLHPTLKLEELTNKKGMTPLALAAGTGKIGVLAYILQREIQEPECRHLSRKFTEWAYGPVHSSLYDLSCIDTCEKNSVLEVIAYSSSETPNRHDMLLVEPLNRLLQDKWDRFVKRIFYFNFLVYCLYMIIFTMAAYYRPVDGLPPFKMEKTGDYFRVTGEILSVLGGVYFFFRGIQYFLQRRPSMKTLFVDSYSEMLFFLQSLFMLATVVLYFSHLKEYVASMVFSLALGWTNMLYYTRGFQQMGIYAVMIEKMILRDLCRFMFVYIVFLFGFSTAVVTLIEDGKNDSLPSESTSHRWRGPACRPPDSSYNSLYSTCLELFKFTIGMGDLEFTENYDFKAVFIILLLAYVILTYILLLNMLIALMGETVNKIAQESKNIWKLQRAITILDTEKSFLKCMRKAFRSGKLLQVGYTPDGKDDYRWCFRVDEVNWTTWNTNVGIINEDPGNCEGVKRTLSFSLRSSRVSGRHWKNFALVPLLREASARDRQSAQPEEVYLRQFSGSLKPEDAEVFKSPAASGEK

Target: Transient receptor potential cation channel subfamily V member 1 (Homo sapiens) (UniProt Q8NER1)
Experiment: HTS Assay for Compounds that Act as Agonists of the Vanilloid Receptor 1; note: 0% is about no effect
Conditions: TRPV1-expressing cells, Fluo-8 calcium influx, agonist mode; at 8.33 µM; hits give high values
Method in brief: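 TRPV1-expressing cells were cultured overnight at 35.5C and loaded with Fluo-8 calcium dye for 40 to 90 min at room temperature. After a 10 s baseline, compound was added and calcium influx was read kinetically for 3 min (ex 480/em 520 nm).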

Row | Compound | activation
1 | Nc1c(C(=O)NCCc2ccccc2)c2nc3ccccc3nc2n1CCN1CCOCC1 | inconclusive: 55.6%
2 | CCOP(=O)(C#Cc1ccccc1)C(O)c1ccc(Br)cc1 (centres undefined) | inconclusive: 38.6%
3 | Oc1ccc(-[n+]2c(-c3ccccc3)cc(-c3ccccc3)cc2-c2ccccc2)cc1 | inactive: -1.28%
4 | CCCCn1c(O)c(C(CC)=NCCc2ccccc2)c(=O)[nH]c1=O | inconclusive: 45.3%
5 | CSc1ccc(CN2CCN(C(=O)COc3ccc(C)cc3)CC2)cc1 | inconclusive: 31.7%
6 | Cc1ccc(CN(Cc2ccccc2)C(=S)NCC(=O)N2CCC3(CC2)OCCO3)o1 | inconclusive: 49.1%
7 | COC(=O)C1=C(c2c(C)noc2C)C[C@@H]2CC[C@H]1N2C(=O)NCc1ccc(F)cc1 | inconclusive: 47.1%
8 | CCC(C)n1c(O)c(C=NCCc2ccccc2)c(=O)[nH]c1=S (centres undefined) | inactive: 18.8%
9 | COC(=O)C1=C(c2ccc(Cl)c(C(F)(F)F)c2)C[C@@H]2CC[C@H]1N2C(=O)NCc1ccc2c(c1)OCO2 | inconclusive: 48.5%
10 | COC(=O)C1=C(c2ccc(OC(F)(F)F)cc2)C[C@@H]2CC[C@H]1N2C(=O)N1CCC(C)CC1 | inconclusive: 40.8%
11 | CCCOc1ccccc1NP(=O)(Oc1ccccc1)Oc1ccccc1 | inconclusive: 40.8%
12 | COC(=O)C1=C(c2ccc(OC)c(OC)c2)C[C@@H]2CC[C@H]1N2C(=O)NCc1cccc2ccccc12 | inconclusive: 57.3%
13 | COc1cc(C(=O)NC(=S)N2C[C@H]3C[C@H](C2)c2cccc(=O)n2C3)cc(OC)c1OC | inactive: -1.01%
14 | Nc1ccc2ccc3cccc[n+]3c2c1 | inactive: 7.96%
15 | COc1ccc(OC)c(N2C(=O)NC(=O)/C(=C/c3ccc([N+](=O)[O-])s3)C2=O)c1 | inactive: -1.03%
16 | Cc1ccc(OP(=O)(Nc2cccc(C)c2)Oc2ccc(C)cc2)cc1 | inconclusive: 38%
17 | O=[N+]([O-])c1ccc(NCc2ccccc2)c2nonc12 | active: 126%
18 | Cc1ccc(OCC(=O)N2CCN(Cc3ccc4c(c3)OCO4)CC2)cc1C | inconclusive: 66.7%
19 | O=C1NC(=O)N(c2ccccc2)C(=O)/C1=C\C=C\c1ccccc1 | inactive: -2.6%
20 | C#C[C@]1(O)CC[C@H]2[C@@H]3CCC4=CC(=O)CC[C@]4(C)[C@H]3CC[C@@]21C | inactive: -2.99%
21 | COc1ccc(/C=C2/C(=O)NC(=S)N(C3CC3)C2=O)cc1CN1C(=O)c2ccccc2C1=O | inactive: 1.28%

Row | Compound | activation
22 | O=c1[nH]c(=S)n(Cc2ccc(F)cc2)c(O)c1C=NCCCn1ccnc1 | inactive: -0.193%
23 | CCOC(=O)c1ccc(NC(=O)c2c(O)[nH]c(=O)[nH]c2=O)cc1 | inconclusive: 65%
24 | COC(=O)C1=C(c2ccc(OC(F)(F)F)cc2)C[C@@H]2CC[C@H]1N2C(=O)N1CCCC1 | inconclusive: 30.4%
25 | CN1C2CCC1/C(=C/c1ccccn1)C(=O)/C2=C\c1ccccn1 | inactive: 3.04%
26 | CCc1ccccc1N1C(=O)/C(=C/c2ccc(N3CCN(C)CC3)o2)C(=O)NC1=S | inactive: 9.72%
27 | O=C(COc1ccccc1)N1CCN(CC2CC=CCC2)CC1 (centres undefined) | inconclusive: 47.2%
28 | NS(=O)(=O)OC(CCc1ccccc1)C(Cl)(Cl)Cl (centres undefined) | inactive: -0.585%
29 | COC(=O)C1=C(c2ccccc2OCc2ccccc2)C[C@@H]2CC[C@H]1N2C(=O)NCc1ccc(OC)cc1 | inconclusive: 45%
30 | CC12CCC3C(CC=C4CC(O)CCC43C)C1C/C(=C\N1CCCC1)C2=O (centres undefined) | inconclusive: 46.8%
31 | Cc1ccc(Cn2nc(C(=O)Nc3ccc(Br)cc3)cc2C)cc1 | active: 108%
32 | COC(=O)C(O)(c1ccc(N(C)C(=O)c2cccs2)cc1)C(F)(F)F (centres undefined) | inactive: 6.83%
33 | COC(=O)C1=C(c2ccc(F)cc2OCc2ccccc2)C[C@@H]2CC[C@H]1N2C(=O)N1CCC(O)CC1 | inconclusive: 41.1%
34 | O=C(c1ccco1)c1cn(Cc2ccccc2Cl)c2ccccc12 | inconclusive: 33.8%
35 | O=C(COC(=O)Cc1ccccc1)Nc1cc(S(=O)(=O)N2CCCCC2)ccc1Cl | inactive: 2.84%
36 | FC(F)(F)Oc1ccc(NC2=NCCCS2)cc1 | inconclusive: 31.6%
37 | OC(c1cccc(Cl)c1)(c1cccc(Cl)c1)C1CN2CCC1CC2 (centres undefined) | inactive: 13.8%
38 | CN1C(=O)C(=Cc2ccccc2OCc2ccc(C(=O)O)cc2)C(=O)N(C)C1=O | inactive: -0.445%
39 | CCCCC/C=C\C/C=C\C/C=C\C/C=C\CCCC(=O)Nc1ccc(O)cc1 | inconclusive: 54.5%
40 | CCc1ccc(OCC(=O)N2CCN(Cc3ccc4c(c3)OCO4)CC2)cc1 | inconclusive: 53%
41 | O=C(Nc1ccc2c(c1)OCO2)c1cn(Cc2ccc(F)cc2)nn1 | inconclusive: 33.3%
42 | COCCCNC(=O)c1c(N)n(Cc2ccco2)c2nc3ccccc3nc12 | inconclusive: 35%

Quoted from above, entries 18 to 42
Row | Compound | activation
18 | Cc1ccc(OCC(=O)N2CCN(Cc3ccc4c(c3)OCO4)CC2)cc1C | inconclusive: 66.7%
19 | O=C1NC(=O)N(c2ccccc2)C(=O)/C1=C\C=C\c1ccccc1 | inactive: -2.6%
20 | C#C[C@]1(O)CC[C@H]2[C@@H]3CCC4=CC(=O)CC[C@]4(C)[C@H]3CC[C@@]21C | inactive: -2.99%
21 | COc1ccc(/C=C2/C(=O)NC(=S)N(C3CC3)C2=O)cc1CN1C(=O)c2ccccc2C1=O | inactive: 1.28%
22 | O=c1[nH]c(=S)n(Cc2ccc(F)cc2)c(O)c1C=NCCCn1ccnc1 | inactive: -0.193%
23 | CCOC(=O)c1ccc(NC(=O)c2c(O)[nH]c(=O)[nH]c2=O)cc1 | inconclusive: 65%
24 | COC(=O)C1=C(c2ccc(OC(F)(F)F)cc2)C[C@@H]2CC[C@H]1N2C(=O)N1CCCC1 | inconclusive: 30.4%
25 | CN1C2CCC1/C(=C/c1ccccn1)C(=O)/C2=C\c1ccccn1 | inactive: 3.04%
26 | CCc1ccccc1N1C(=O)/C(=C/c2ccc(N3CCN(C)CC3)o2)C(=O)NC1=S | inactive: 9.72%
27 | O=C(COc1ccccc1)N1CCN(CC2CC=CCC2)CC1 (centres undefined) | inconclusive: 47.2%
28 | NS(=O)(=O)OC(CCc1ccccc1)C(Cl)(Cl)Cl (centres undefined) | inactive: -0.585%
29 | COC(=O)C1=C(c2ccccc2OCc2ccccc2)C[C@@H]2CC[C@H]1N2C(=O)NCc1ccc(OC)cc1 | inconclusive: 45%
30 | CC12CCC3C(CC=C4CC(O)CCC43C)C1C/C(=C\N1CCCC1)C2=O (centres undefined) | inconclusive: 46.8%
31 | Cc1ccc(Cn2nc(C(=O)Nc3ccc(Br)cc3)cc2C)cc1 | active: 108%
32 | COC(=O)C(O)(c1ccc(N(C)C(=O)c2cccs2)cc1)C(F)(F)F (centres undefined) | inactive: 6.83%
33 | COC(=O)C1=C(c2ccc(F)cc2OCc2ccccc2)C[C@@H]2CC[C@H]1N2C(=O)N1CCC(O)CC1 | inconclusive: 41.1%
34 | O=C(c1ccco1)c1cn(Cc2ccccc2Cl)c2ccccc12 | inconclusive: 33.8%
35 | O=C(COC(=O)Cc1ccccc1)Nc1cc(S(=O)(=O)N2CCCCC2)ccc1Cl | inactive: 2.84%
36 | FC(F)(F)Oc1ccc(NC2=NCCCS2)cc1 | inconclusive: 31.6%
37 | OC(c1cccc(Cl)c1)(c1cccc(Cl)c1)C1CN2CCC1CC2 (centres undefined) | inactive: 13.8%
38 | CN1C(=O)C(=Cc2ccccc2OCc2ccc(C(=O)O)cc2)C(=O)N(C)C1=O | inactive: -0.445%
39 | CCCCC/C=C\C/C=C\C/C=C\C/C=C\CCCC(=O)Nc1ccc(O)cc1 | inconclusive: 54.5%
40 | CCc1ccc(OCC(=O)N2CCN(Cc3ccc4c(c3)OCO4)CC2)cc1 | inconclusive: 53%
41 | O=C(Nc1ccc2c(c1)OCO2)c1cn(Cc2ccc(F)cc2)nn1 | inconclusive: 33.3%
42 | COCCCNC(=O)c1c(N)n(Cc2ccco2)c2nc3ccccc3nc12 | inconclusive: 35%

More results

Row | Compound | activation
43 | O=C1NC(=O)C(Sc2ccccc2[N+](=O)[O-])C(=O)N1 | inactive: -0.077%
44 | O=P(Nc1ccccc1)(Oc1ccccc1)Oc1ccccc1 | inactive: 20.5%
45 | CCOC(=O)c1c(C)n(Cc2ccco2)c2c1cc(O)c1ccccc12 | inconclusive: 70.3%
46 | O=C(c1cc(F)ccc1F)C1CCCN(Cc2cc(Cl)ccc2O)C1 (centres undefined) | inactive: 17.1%
47 | CCSC1=NN1c1cc(C)nc(N)n1 | inactive: -3.76%
48 | CCCCn1c(O)c(C(C)=NCCc2c[nH]c3ccccc23)c(=O)[nH]c1=O | inactive: 14.5%
49 | COc1ccc(C(=O)C2CCCN(C3CSCCSC3)C2)c(OC)c1 (centres undefined) | inconclusive: 44.4%
50 | COC(=O)C1=C(c2ccc(F)cc2OCc2ccccc2)C[C@@H]2CC[C@H]1N2C(=O)NC(C)C | inconclusive: 46%
51 | C[C@@H]1C[C@H]2OC(=O)C3(CO3)[C@H]2[C@H](O)[C@]2(C)C(=O)C3OC3[C@@H]12 (some centres undefined) | inactive: 2.45%
52 | CC/C(=C\C=C\[C@@H]1C=C[C@@H]2CCC[C@H]2[C@@H]1C(=O)c1ccc[nH]1)[C@@H]1O[C@@H]([C@@H](C)C(=O)O)CC[C@@H]1C | inconclusive: 54.6%
53 | COc1ccc(CC(=O)Nc2ccc3c(C(F)(F)F)cc(=O)oc3c2)cc1OC | inconclusive: 66.3%
54 | CCC(C)NC(=O)CCC(=O)OC1O[C@H]2OC3(C)CC[C@H]4[C@H](C)CCC(C1C)C24OO3 (some centres undefined) | inconclusive: 34.3%
55 | CCCNC(=O)N1[C@H]2CC[C@@H]1C(C(=O)OC)=C(c1ccc(Cl)c(C(F)(F)F)c1)C2 | inconclusive: 44.4%
56 | COC(=O)C1=C(c2ccc(-c3ccccc3)c(F)c2)C[C@@H]2CC[C@H]1N2C(=O)N1CCOCC1 | inconclusive: 40.7%
57 | Clc1ccc(C(OCCN2CCCCC2)c2ccccc2)cc1 (centres undefined) | inactive: -0.255%
58 | Cc1ccc(O)c(C(=O)c2cc(C(=O)NCCC(C)C)c(=O)n(CCC(C)C)c2)c1 | inconclusive: 36.5%
59 | CC(C)NS(=O)(=O)c1ccc(OCC(=O)N2CCN(Cc3ccccc3)CC2)c(Cl)c1 | inactive: 4.32%
60 | CC[C@@]1(O)C(=O)OCc2c1cc1n(c2=O)Cc2cc3c(NC(=O)CN)cccc3nc2-1 | inactive: -3.2%
61 | CCn1c(O)c(/C=N/NC(=O)c2ccncc2)c(=O)[nH]c1=S | inactive: 2.83%
62 | Nc1c2c(nc3sc4c(c13)CCCCC4)CCCC2 | inactive: -3.87%
63 | O=C1NC(=O)N(c2ccccc2)C(=O)/C1=C/C=C/c1ccco1 | inactive: 7.09%

Row | Compound | activation
64 | COC(=O)C1=C(c2ccc(C(C)=O)cc2)C[C@@H]2CC[C@H]1N2C(=O)N1CCC(O)(c2ccc(Cl)cc2)CC1 | inactive: 0.11%
65 | CN(Cc1ccccc1)Cc1ccccc1OC(=O)N(C)C | inactive: -2.06%
66 | COc1cccc(C(=O)C2CCCN(Cc3ccc(F)cc3)C2)c1 (centres undefined) | inactive: 26.9%
67 | Cc1ccc2c(c1)C1CN(C)CCC1N2C(=O)c1cn(-c2ccccc2)nc1-c1ccccc1 (centres undefined) | inactive: 21.3%
68 | CCOC(=O)C(O)(c1ccc(NC(=O)c2ccc(Cl)c(Cl)c2)cc1)C(F)(F)F (centres undefined) | inconclusive: 54.5%
69 | O=C(N/N=C/c1c(O)n(C2CCCCC2)c(=S)[nH]c1=O)c1ccccc1O | inconclusive: 49.2%
70 | S=C=Nc1ccccn1 | inactive: -0.12%
71 | COc1ccccc1-n1c(-c2ccc(C)cc2)nc2ccccc2c1=O | inconclusive: 45.3%
72 | Oc1cccc2nc3ccccc3nc12 | inactive: -0.0701%
73 | CC1(C)CN=C(Nc2ccc(F)c(Cl)c2)S1 | inactive: 26.6%
74 | COc1cc(OC)c(OC)cc1CNCCc1ccc(OC)c(OC)c1 | inactive: 1.35%
75 | COC(=O)C1=C(c2ccc(F)cc2OCc2ccccc2)C[C@@H]2CC[C@H]1N2C(=O)N1CCOCC1 | inconclusive: 52%
76 | COc1ccccc1N1CCN(Cc2ccc(Br)cc2)CC1 | inactive: 14.5%
77 | CN1C(=O)C(=Cc2c(OCc3cnc(Cl)s3)ccc3ccccc23)C(=O)N(C)C1=O | inconclusive: 54.2%
78 | O=c1[nH]c(=O)n(C2CCCCC2)c(O)c1/C=C/C=Nc1ccccc1 | inconclusive: 39.5%
79 | Cc1nn(Cc2ccccc2)c(Cl)c1C(=O)Nc1ccc(OC(F)(F)F)cc1 | inconclusive: 54.5%
80 | Oc1ccc2c3c1O[C@H]1c4oc5ccccc5c4C[C@@]4(O)[C@@H](C2)N(CC2CC2)CC[C@]314 | inactive: 1.9%
81 | O=C(Nc1ccc(Cl)c(Cl)c1)c1ccco1 | inconclusive: 47.1%
82 | CN1CCN(Cc2cc(=O)n3ccsc3n2)CC1 | inactive: 0.305%
83 | CN1[C@@H]2CC[C@H]1CC(OC1c3ccccc3CCc3ccccc31)C2 (some centres undefined) | inconclusive: 42.6%
84 | O=C(c1ccc2c(c1)OCO2)C1CCCN(Cc2c(F)cccc2Cl)C1 (centres undefined) | inconclusive: 37.4%
